Results deposited as PubChem BioAssay AID1259424 (University of Nebraska Medical Center, 2018)
Here is an unselected part of about 14,000 reagents. 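Higher correlation or smaller distance means closer resemblance to KSR1 loss; control wells, including KSR1 knockdowns, recur on many plates.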 A reagent listed more than once was tested more than once; the source does not tell the runs apart. Not all columns of the deposit are shown. No sequences are given here. The record does not give: the time to read-out.

Test: 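Seek colon cancer survival genes behaving like KSR1, using a six-gene signature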 (primary screen)
System: human HCT116 colon cancer cells
Knock-down reagent: siRNA pool against human genes, 50 nM
Measured: 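Six signature mRNAs by branched-DNA multiplex assay, scaled to two housekeeping genes and non-targeting median, log2; matched to mean KSR1 knockdown profile by Pearson correlation and euclidean distance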
Reading the numbers: mean correlation with KSR1 profile: higher = expression change more like KSR1 knockdown

The opening 3 records, ahead of the listing:
{"gene": "ARHGAP22", "mean correlation with KSR1 profile": 0.309}
{"gene": "CDC16", "mean correlation with KSR1 profile": -0.113}
{"gene": "SIRPG", "mean correlation with KSR1 profile": -0.299}

The list itself, from the start:
{"gene": "ARHGAP22", "mean correlation with KSR1 profile": 0.309}
{"gene": "CDC16", "mean correlation with KSR1 profile": -0.113}
{"gene": "SIRPG", "mean correlation with KSR1 profile": -0.299}
{"gene": "AMFR", "mean correlation with KSR1 profile": -0.582}
{"gene": "NUDT1", "mean correlation with KSR1 profile": 0.323}
{"gene": "PPP1R3B", "mean correlation with KSR1 profile": -0.127}
{"gene": "MAGED1", "mean correlation with KSR1 profile": -0.416}
{"gene": "MGP", "mean correlation with KSR1 profile": -0.427}
{"gene": "SPATA9", "mean correlation with KSR1 profile": 0.78}
{"gene": "CORT", "mean correlation with KSR1 profile": -0.059}
{"gene": "CORT", "mean correlation with KSR1 profile": -0.0907}
{"gene": "RERG", "mean correlation with KSR1 profile": 0.23}
{"gene": "RBFA", "mean correlation with KSR1 profile": 0.519}
{"gene": "CCNJ", "mean correlation with KSR1 profile": 0.00172}
{"gene": "TUB", "mean correlation with KSR1 profile": -0.46}
{"gene": "TXNDC5", "mean correlation with KSR1 profile": 0.682}
{"gene": "LINC00574", "mean correlation with KSR1 profile": 0.627}
{"gene": "VAPA", "mean correlation with KSR1 profile": 0.146}
{"gene": "H2BC17", "mean correlation with KSR1 profile": 0.316}
{"gene": "EHD1", "mean correlation with KSR1 profile": -0.69}
{"gene": "DRAP1", "mean correlation with KSR1 profile": -0.0271}
{"gene": "FAM135A", "mean correlation with KSR1 profile": 0.119}
{"gene": "PRSS23", "mean correlation with KSR1 profile": -0.383}
{"gene": "PASK", "mean correlation with KSR1 profile": 0.172}
{"gene": "BMPR1A", "mean correlation with KSR1 profile": -0.238}
{"gene": "SCMH1", "mean correlation with KSR1 profile": 0.284}
{"gene": "SCLY", "mean correlation with KSR1 profile": 0.362}
{"gene": "NRCAM", "mean correlation with KSR1 profile": -0.239}
{"gene": "ZNF165", "mean correlation with KSR1 profile": -0.0302}
{"gene": "INO80B", "mean correlation with KSR1 profile": 0.345}
{"gene": "ZNF266", "mean correlation with KSR1 profile": -0.0373}
{"gene": "ATP2A2", "mean correlation with KSR1 profile": -0.0156}
{"gene": "NPL", "mean correlation with KSR1 profile": 0.861}
{"gene": "ARHGEF9", "mean correlation with KSR1 profile": -0.596}
{"gene": "HLA-DOA", "mean correlation with KSR1 profile": -0.117}
{"gene": "C1orf115", "mean correlation with KSR1 profile": 0.706}
